According to patent US20120295932A1, “METHOD FOR THE TREATMENT OF CANCER” (Western Connecticut Health Network, Inc., priority 2011, published 2012):
At least one compound was matched to its structure with a doubt left.

Experiments:
[1] = tested on: RKO (female) colorectal cancer cells; assay: 14-day clonogenic assay, chemotherapy with and without bicalutamide, RKO cells; assay type: cell-based; conditions: RKO female cell line, colonies counted after 14 days, average of three independent experiments
[2] = tested on: SW480 (male) colorectal cancer cells; assay: 14-day clonogenic assay, chemotherapy with and without bicalutamide, SW480 cells; assay type: cell-based; conditions: SW480 male cell line, colonies counted after 14 days, average of three independent experiments
[3] = bicalutamide 20 μM for 72 hours after SN38 0.25, 0.5, 1 and 2 nM
[4] = bicalutamide 20 μM for 72 hours after oxaliplatin 750, 1500, 3000 and 6000 nM

CC(O)(CS(=O)(=O)c1ccc(F)cc1)C(=O)Nc1ccc(C#N)c(C(F)(F)F)c1 (stereo not shown) [bicalutamide]
effect of bicalutamide on efficacy of chemotherapy with SN38 (colony number, clonogenic assay) [1, 3]: not in RKO cells
effect of bicalutamide on efficacy of chemotherapy with oxaliplatin (colony number, clonogenic assay) [1, 4]: not in RKO cells
effect of bicalutamide on efficacy of chemotherapy with SN38 (colony number, clonogenic assay) [2, 3]: able to increase the efficacy of chemotherapy
effect of bicalutamide on efficacy of chemotherapy with oxaliplatin (colony number, clonogenic assay) [2, 4]: able to increase the efficacy of chemotherapy
